Source: patent US20180258381A1, “BIO-LAMINA BIOREACTORS AND METHODS OF MAKING AND USING THE SAME” (Oregon State University, priority 2015, published 2018)

Tested on: OB3b expressing sMMO
Experiment: Packed bed reactor with cyclopropane inhibitor
Format: cell-based, Methylosinus trichosporium (OB3b)
Method: A Packed Bed Reactor was used to evaluate the conversion of methane to methanol by cell of OB3b expressing sMMO. […] Cyclopropanol is expected to be produced via oxidation of cyclopropane by MMO in this example.
A continuous flow PBR was constructed using a glass HPLC column with the dimensions 2.5 cm ID and 13 cm packing height. Methane, oxygen, and the inhibitor feed solutions dissolved in media were contained within the two 100 mL syringes. The column was packed with alginate beads with sMMO-expressing OB3b formed in-situ under aseptic conditions Immobilized culture performance was evaluated in the PBR over a range of flow rates to achieve reactor residence times (τ) ranging from 0.2, 0.3, 0.5, and 8.5 hours. Two separate experiments were carried out, one for methane transformation (conversion) without the cyclopropane inhibitor and the other with the inhibitor (FIG. 26). For the methane utilization studies, the influent solution was developed by adding 7 mL methane and 21 mL oxygen to the 100 ml syringes. For the inhibition studies 1 ml of cyclopropane was added. After equilibration for 20 minutes, the gases were ejected from the syringes, and the syringes connected to the column inlet.
An integrated form of the Monod equation was used to analyze the results from the PBR experiment. […]

Compound: C1CC1 [CP, cyclopropane]
- Cyclopropane conversion (after about 4 hours residence time): about 17%±32%
- Cyclopropane conversion (τ of 8 hours): 67±3%
